Assay results as given in US20110020235A1, “MR METHODS OF GRADING A TUMOR USING AN IMAGING MEDIUM THAT COMPRISES HYPERPOLARISED 13C-PYRUVATE” (priority 2007, published 2011).

Tested on: TRAMP mouse prostate tumor
Experiment: in vivo 3D hyperpolarized 13C-MRSI of prostate tumors in TRAMP mice after injection of hyperpolarized 13C1-pyruvate
Conditions: 13C-MRSI 35 seconds after start of injection of 79 mM hyperpolarized pyruvate
Description: All normal (N=5) and TRAMP (N=4 early stage primary tumor (low grade tumor)), N=5 late stage primary tumor (high grade tumor)) mouse studies were performed under a protocol approved by the UCSF Institutional Animal Care and Utilization Committee. (1). For all the mice included in this study, a 28 g port that extended from the dorsal surface of their neck was surgically implanted into one of their jugular veins at least one day before the hyperpolarized MR study. […]
^1H-MR images were acquired in sagittal, axial and coronal views using a T2-weighted fast spin echo sequence with a 6 cm FOV, 128×128 matrix, 1.5 mm slice thickness with no inter-slice spacing, and TE=102 ms/TR=4 s. […] A double spin-echo pulse sequence with a small flip-angle excitation, adiabatic refocusing, and a flyback echo-planar readout trajectory was used to acquire in vivo 3D hyperpolarized ^13C-MRSI data 35 seconds after the start of the pyruvate injection into jugular vein of six TRAMP mice (3 early and 3 late stage tumor) (1-2). […]
During the dissection digital photographs and videos were taken and excised tissues were immediately fixed in 10% buffered formalin. […] The % necrosis was also recorded (Table 1). […]

CC(=O)C(=O)O [13C1-pyruvate]
lactate to pyruvate ratio (early stage primary tumor (low grade)): 1.2
lactate to pyruvate ratio (late stage primary tumor (high grade)): 3.4
